Test results: PubChem BioAssay AID248 (DTP/NCI, 2004)
The list is a part of this screen's results and no random one: it gathers tests that were run many times, whatever their T/C, doses with no T/C, and many T/C values between a quarter and a half above the control. Other doses and runs of a compound stand elsewhere. T/C gives the treated animals as a percentage of the vehicle group. Some entries give survivors of the animals treated and no T/C: the source files T/C as zero there, which appears to mark a toxic dose or a test without result, not a measured value. Some survivor counts are full or nearly so, which does not show that the dose was tolerated: the source hardly ever lists a survival T/C far under the control, and the zero likely stands for such cases as well. Counts of survivors are from the toxicity check (mostly the fifth day) where no day follows; animals may have died later. Schedules are NCI's codes, read here as Q, the interval in days (D) or hours (H), X, the number of doses. Some doses were run more than once; the results are listed from low to high. Some schedule codes hold Z or #, which are not explained here. Counts like (3×) say how often a value occurs here. Where survival is the endpoint, this PubChem deposit counts one and a half times the control or more as active, and values a quarter to a half above the control carry no call in these data; other NCI protocols may use other cut-offs.

System: L1210 leukemia ip in BDF1 mice, survival T/C
Experiment: NCI In Vivo Anticancer Drug Screen. Data for tumor model L1210 Leukemia (intraperitoneal) in B6D2F1 (BDF1) mice
Details: higher T/C = longer survival
[1] = T/C endpoint: mean survival time, dose: 400.0 mg/kg/injection, schedule: Q01DX009 (ip), vehicle: Klucel (hydroxypropylcellulose) (HPC)
[2] = T/C endpoint: mean survival time, dose: 400.0 mg/kg/injection, schedule: Q01DX001 (ip), vehicle: saline
[3] = T/C endpoint: mean survival time, dose: 200.0 mg/kg/injection, schedule: Q04DX003 (ip), vehicle: saline
[4] = T/C endpoint: mean survival time, dose: 400.0 mg/kg/injection, schedule: Q04DX003 (ip), vehicle: saline
[5] = T/C endpoint: mean survival time, dose: 100.0 mg/kg/injection, schedule: Q01DX001 (ip), vehicle: saline
[6] = T/C endpoint: mean survival time, dose: 200.0 mg/kg/injection, schedule: Q01DX001 (ip), vehicle: saline
[7] = T/C endpoint: mean survival time, dose: 100.0 mg/kg/injection, schedule: Q01DX001 (ip), vehicle: carboxymethylcellulose (CMC)
[8] = T/C endpoint: mean survival time, dose: 200.0 mg/kg/injection, schedule: Q01DX001 (ip), vehicle: carboxymethylcellulose (CMC)
[9] = T/C endpoint: mean survival time, dose: 400.0 mg/kg/injection, schedule: Q01DX001 (ip), vehicle: carboxymethylcellulose (CMC)
[10] = T/C endpoint: mean survival time, dose: 100.0 mg/kg/injection, schedule: Q04DX003 (ip), vehicle: saline with Tween-80
[11] = T/C endpoint: mean survival time, dose: 200.0 mg/kg/injection, schedule: Q04DX003 (ip), vehicle: saline with Tween-80
[12] = T/C endpoint: mean survival time, dose: 400.0 mg/kg/injection, schedule: Q04DX003 (ip), vehicle: saline with Tween-80
[13] = T/C endpoint: mean survival time, dose: 400.0 mg/kg/injection, schedule: Q04DX002 (ip), vehicle: Klucel (hydroxypropylcellulose) (HPC)
[14] = T/C endpoint: mean survival time, dose: 200.0 mg/kg/injection, schedule: Q04DX002 (ip), vehicle: Klucel (hydroxypropylcellulose) (HPC)
[15] = T/C endpoint: mean survival time, dose: 300.0 mg/kg/injection, schedule: Q01DX001 (ip), vehicle: saline

`O=C(COc1ccc(Cl)cc1Cl)OC(=O)COc1ccc(Cl)cc1Cl` was tested, and the T/C (T/C endpoint: mean survival time, dose: 50.0 mg/kg/injection, schedule: Q01DX009 (ip), vehicle: carboxymethylcellulose (CMC)) was 97 (2×), 98, 100 % of control, the survivor count (T/C endpoint: mean survival time, dose: 100.0 mg/kg/injection, schedule: Q01DX009 (ip), vehicle: carboxymethylcellulose (CMC)) was 3 of 3 and the survivor count (T/C endpoint: mean survival time, dose: 200.0 mg/kg/injection, schedule: Q01DX009 (ip), vehicle: carboxymethylcellulose (CMC)) was 0 of 3 and 5 of 6. The survivor count (T/C endpoint: mean survival time, dose: 200.0 mg/kg/injection, schedule: Q04DX003 (ip), vehicle: carboxymethylcellulose (CMC)) was 3 of 6 and the survivor count (T/C endpoint: mean survival time, dose: 400.0 mg/kg/injection, schedule: Q04DX002 (ip), vehicle: carboxymethylcellulose (CMC)) was 0 of 3 and 5 of 6.

For `COC(=O)C1C(C(=O)OC)C2(Cl)C(Cl)=C(Cl)C1(Cl)C2(Cl)Cl` (stereo not given), the survivor count [1] was 2 of 6.

`Cc1cc(Cl)c(C)c(C(=O)O)c1Cl` was tested, and the survivor count [2] was 1 of 6.

With `C/C=C/C(=O)OC(=O)/C=C/C` the survivor count [3] was 1 of 6 and the survivor count [4] was 0 of 6.

In the case of `CCN(CCCl)CCCNCc1c2ccccc2c(C)c2ccccc12`, the T/C (T/C endpoint: mean survival time, dose: 2.5 mg/kg/injection, schedule: Q01DX005 (ip), vehicle: saline) is reported as 127 % of control, the survivor count (T/C endpoint: mean survival time, dose: 10.0 mg/kg/injection, schedule: Q01DX005 (ip), vehicle: saline) is reported as 0 of 6 and the survivor count (T/C endpoint: mean survival time, dose: 15.0 mg/kg/injection, schedule: Q01DX009 (ip), vehicle: saline) is reported as 1 of 6. The survivor count (T/C endpoint: mean survival time, dose: 30.0 mg/kg/injection, schedule: Q01DX009 (ip), vehicle: saline) was 4 of 6 and the survivor count (T/C endpoint: mean survival time, dose: 45.0 mg/kg/injection, schedule: Q01DX009 (ip), vehicle: saline) was 0 of 6.

With `CCCCCC[As](=O)(O)CCCCCC` the survivor count [5] was 2 of 4, the survivor count [6] was 0 of 4 and the survivor count [2] was 0 of 4.

`O=C(CCN1CCC2CCC(C2)C1)c1ccccc1C(F)(F)F` (stereo not given) was tested, and the survivor count [7] was 2 of 4, the survivor count [8] was 0 of 4 and the survivor count [9] was 0 of 4.

For `Fc1ccccc1N=C=S`, the survivor count (T/C endpoint: mean survival time, dose: 300.0 mg/kg/injection, schedule: Q01DX001 (ip), vehicle: other) was 0 of 6.

`Cc1cc(F)ccc1[As](=O)(O)O` was tested, and the survivor count (T/C endpoint: mean survival time, dose: 50.0 mg/kg/injection, schedule: Q04DX003 (ip), vehicle: saline with Tween-80) was 2 of 6, the survivor count [10] was 0 of 6 (2×) and the survivor count [11] was 0 of 6. The survivor count [12] was 0 of 6.

For `COC(=O)c1ccccc1NC(=O)CCl`, the survivor count [12] was 5 of 6.

With `C1=CC2CC1CC2/C=N\N=C\C1CC2C=CC1C2` (stereo not given) the survivor count [13] was 1 of 3.

`O=C(O)c1cccc([N+](=O)[O-])c1` was tested, and the survivor count [14] was 3 of 3.

For `O=c1ccc2ccccc2[nH]1.[Mn]`, the survivor count (T/C endpoint: mean survival time, dose: 80.0 mg/kg/injection, schedule: Q01DX001 (ip), vehicle: carboxymethylcellulose (CMC)) was 0 of 4, the survivor count [7] was 0 of 6 and the survivor count [8] was 1 of 6. The survivor count [9] was 0 of 6.

For `c1ccc2cc3c(ccc4cccc[n+]43)cc2c1`, the survivor count [5] was 0 of 6, the survivor count [6] was 0 of 6 and the survivor count [2] was 0 of 6.

`Nc1nnc(N)c2nc(-c3ccccc3)c(-c3ccccc3)nc12` was tested, and the survivor count [1] was 2 of 6.

With `OC(CN1CCCCC1)c1cccs1` (stereo not given) the survivor count [10] was 6 of 6, the survivor count [11] was 3 of 6 and the survivor count [12] was 0 of 6.

For `C/C(=N\N=C(/C)c1ccc(Cl)cc1)c1ccc(Cl)cc1`, the survivor count [1] was 6 of 6.

For `O=C(N/N=C\c1cc(=O)[nH]c(=O)[nH]1)c1ccncc1`, the survivor count [2] was 2 of 4.

`CN1CN(c2ccccc2)C2(CCNCC2)C1=O` was tested, and the survivor count [15] was 0 of 6.

With `N\C([S-])=N/N=C\C(=N/N=C(\N)[S-])C(O)C(O)C(O)CO.[Pd+2]` (stereo not given) the survivor count [4] was 5 of 6.

`c1ccc2c(c1)CC1Sc3ccccc3N=C21` (stereo not given) was tested, and the survivor count [12] was 1 of 6.

For `Cc1cc(=O)[nH]c(N/N=C/c2ccccc2)n1`, the survivor count (T/C endpoint: mean survival time, dose: 200.0 mg/kg/injection, schedule: Q01DX009 (ip), vehicle: gum acacia) was 6 of 6.

For `O=C1C=C(N2CCOCC2)c2cccc3cccc1c23`, the survivor count [1] was 1 of 5.

`c1ccc([P+](c2ccccc2)(c2ccccc2)C2CN=NC2)cc1` was tested, and the survivor count (T/C endpoint: mean survival time, dose: 75.0 mg/kg/injection, schedule: Q01DX001 (ip), vehicle: saline) was 0 of 6, the survivor count (T/C endpoint: mean survival time, dose: 150.0 mg/kg/injection, schedule: Q01DX001 (ip), vehicle: saline) was 1 of 6 and the survivor count [15] was 0 of 6.

With `CSCS(=O)C[C@H](CO)NC(=O)/C=C/c1c(C)[nH]c(=O)[nH]c1=O` (stereo not given in full) the survivor count (T/C endpoint: mean survival time, dose: 1.0 mg/kg/injection, schedule: Q01DX Z (ip), vehicle: carboxymethylcellulose (CMC)) was 6 of 6, the survivor count (T/C endpoint: mean survival time, dose: 1.25 mg/kg/injection, schedule: Q01DX Z (ip), vehicle: carboxymethylcellulose (CMC)) was 6 of 6 and the survivor count (T/C endpoint: mean survival time, dose: 1.5 mg/kg/injection, schedule: Q01DX Z (ip), vehicle: carboxymethylcellulose (CMC)) was 6 of 6. For the same molecule, the T/C (T/C endpoint: mean survival time, dose: 1.56 mg/kg/injection, schedule: Q04DX002 (ip), vehicle: Klucel (hydroxypropylcellulose) (HPC)) was 130 % of control, the T/C (T/C endpoint: mean survival time, dose: 3.13 mg/kg/injection, schedule: Q04DX002 (ip), vehicle: Klucel (hydroxypropylcellulose) (HPC)) was 130 % of control and the survivor count (T/C endpoint: mean survival time, dose: 6.25 mg/kg/injection, schedule: Q04DX002 (ip), vehicle: Klucel (hydroxypropylcellulose) (HPC)) was 0 of 3. For the same molecule, the survivor count (T/C endpoint: mean survival time, dose: 12.5 mg/kg/injection, schedule: Q04DX002 (ip), vehicle: Klucel (hydroxypropylcellulose) (HPC)) was 1 of 3, the survivor count (T/C endpoint: mean survival time, dose: 25.0 mg/kg/injection, schedule: Q04DX002 (ip), vehicle: Klucel (hydroxypropylcellulose) (HPC)) was 1 of 3 and the survivor count (T/C endpoint: mean survival time, dose: 50.0 mg/kg/injection, schedule: Q04DX002 (ip), vehicle: Klucel (hydroxypropylcellulose) (HPC)) was 0 of 3. For the same molecule, the survivor count (T/C endpoint: mean survival time, dose: 100.0 mg/kg/injection, schedule: Q04DX002 (ip), vehicle: Klucel (hydroxypropylcellulose) (HPC)) was 0 of 3, the survivor count [14] was 0 of 3 and the survivor count [13] was 0 of 3. For the same molecule, the T/C (T/C endpoint: median survival time, dose: 1.0 mg/kg/injection, schedule: Q04DX003 (ip), vehicle: saline) was 125 % of control, the T/C (T/C endpoint: median survival time, dose: 2.0 mg/kg/injection, schedule: Q04DX003 (ip), vehicle: saline) was 128 % of control and the survivor count (T/C endpoint: median survival time, dose: 8.0 mg/kg/injection, schedule: Q04DX003 (ip), vehicle: saline) was 1 of 8. The survivor count (T/C endpoint: median survival time, dose: 16.0 mg/kg/injection, schedule: Q04DX003 (ip), vehicle: saline) was 0 of 8.

For `COc1ccc(CNCCNCc2ccc(OC)cc2)cc1`, the survivor count (T/C endpoint: mean survival time, dose: 400.0 mg/kg/injection, schedule: Q04DX003 (ip), vehicle: Klucel (hydroxypropylcellulose) (HPC)) was 0 of 6.

For `[Cl][Ni][Cl].[NH-]CCN1CC1.[NH-]CCN1CC1`, the survivor count (T/C endpoint: mean survival time, dose: 100.0 mg/kg/injection, schedule: Q04DX003 (ip), vehicle: saline) was 1 of 6, the survivor count [3] was 0 of 6 and the survivor count [4] was 0 of 6.

With `S=C=NCCCCCCCCCCCCN=C=S` the survivor count (T/C endpoint: mean survival time, dose: 25.0 mg/kg/injection, schedule: Q01DX009 (ip), vehicle: saline with Tween-80) was 1 of 3 and 4 of 6, the survivor count (T/C endpoint: mean survival time, dose: 50.0 mg/kg/injection, schedule: Q01DX009 (ip), vehicle: saline with Tween-80) was 0 of 3 and the survivor count (T/C endpoint: mean survival time, dose: 100.0 mg/kg/injection, schedule: Q01DX009 (ip), vehicle: saline with Tween-80) was 1 of 3. The survivor count (T/C endpoint: mean survival time, dose: 100.0 mg/kg/injection, schedule: Q04DX002 (ip), vehicle: saline with Tween-80) was 1 of 3, the survivor count (T/C endpoint: mean survival time, dose: 200.0 mg/kg/injection, schedule: Q04DX002 (ip), vehicle: saline with Tween-80) was 1 of 3 and the survivor count (T/C endpoint: mean survival time, dose: 400.0 mg/kg/injection, schedule: Q04DX002 (ip), vehicle: saline with Tween-80) was 1 of 3.
